# Measured values as given in patent US7041818B2, “DDS compound and method for measurement thereof” (priority 1998, dated 2006).
# Experiments:
# [1] = Drug content of DDS compound by peptidase treatment and HPLC of the released hydrolysate; conditions: Britton Robinson buffer pH 6, 40° C.
# [2] = Drug content of DDS compound based on UV absorption; conditions: calibration with DX-8951
# [3] = papain, 4 hours, hydrolysate by HPLC
Substance,"DX-8951 content of DDS compound [1, 3] [%]",DX-8951 content of DDS compound [2] [%],"DX-8951 content of DDS compound ([1]; α-chymotrypsin, hydrolysate quantified by HPLC) [%]"
"CM-Dex-PA-Gly-Gly-Phe-Gly-NH—(CH2)4—CO-DX-8951 (GGFG; CM-dextran carrier, DX-8951 drug conjugate; Spacer Sequence)",3.0,3.1,–
CM-Dex-PA-Gly-Gly-Phe-Gly-NH—Y′—CH2—O—CO-DX-8951,4.0,3.3,–
CM-Dex-PA-Gly-Gly-Gly-Phe-NH—Y′—CH2—O—CO-DX-8951,–,1.7,2.5
